For this test, the system named is reduced form GSH contents in brain extracts. Nature of the test: Reduced GSH levels in brain tissue extracts of treated mice. Type of test: in vivo. To be noted: oral TT-1 200 mg/kg, donepezil 5 mg/kg; scopolamine-induced amnesiac mice. Here is the method:
At the end of the TT-1 and TT-2 treatments, mice were sacrificed, and the whole brain of each ICR mouse was isolated and immediately stored at −80 °C for the measurement of residual AChE activity and the reduced GSH levels. The whole brain of each mouse was ground into powder by means of a mortar and pestle in liquid nitrogen and then extracted by adding 1 mL of 100 mM phosphate buffer (pH 7.5) to the ice bath. […]. The residual AChE activity of each brain extract was expressed as [A405sample−A405sample blank]/μg protein. The glutathione assay kit (no. 703002; Cayman Chemical Co.) was used to determine the reduced form GSH levels based on the reaction of GSH with DTNB reagents to generate a yellowish 5-thio-2-nitrobenzoic acid and expressed as A412 nm/μg protein.

Counter-ions that a name gives are not always drawn.

Turning to `COc1cc2c(cc1OC)C(=O)C(CC1CCN(Cc3ccccc3)CC1)C2` (stereo not shown) [donepezil, donepezil hydrochloride], the “reduced form GSH contents in brain extracts vs control” value is “higher reduced form GSH contents”.

These data come from PMC8394356 (Biomedicines, 2021).
